In one assay the target is p53 (tumor protein p53) (UniProt P04637). The assay is described as follows: co-IP; HEK-293T cells, shScramble or shNr4a1, under H2O2 stimulation (100 uM H2O2); some panels with Sirt1 overexpression or Chk2 silencing; immunoblot detection; protocol as in Fu et al., 2020. In general terms: In western blotting, separated proteins are transferred to a membrane and probed.
The target in assay [1] is Sirt1 (sirtuin 1 protein) (UniProt Q96EB6). The assay is described as above.

The chains behind the UniProt entries cited, without tags or fusion partners.
UniProt Q96EB6: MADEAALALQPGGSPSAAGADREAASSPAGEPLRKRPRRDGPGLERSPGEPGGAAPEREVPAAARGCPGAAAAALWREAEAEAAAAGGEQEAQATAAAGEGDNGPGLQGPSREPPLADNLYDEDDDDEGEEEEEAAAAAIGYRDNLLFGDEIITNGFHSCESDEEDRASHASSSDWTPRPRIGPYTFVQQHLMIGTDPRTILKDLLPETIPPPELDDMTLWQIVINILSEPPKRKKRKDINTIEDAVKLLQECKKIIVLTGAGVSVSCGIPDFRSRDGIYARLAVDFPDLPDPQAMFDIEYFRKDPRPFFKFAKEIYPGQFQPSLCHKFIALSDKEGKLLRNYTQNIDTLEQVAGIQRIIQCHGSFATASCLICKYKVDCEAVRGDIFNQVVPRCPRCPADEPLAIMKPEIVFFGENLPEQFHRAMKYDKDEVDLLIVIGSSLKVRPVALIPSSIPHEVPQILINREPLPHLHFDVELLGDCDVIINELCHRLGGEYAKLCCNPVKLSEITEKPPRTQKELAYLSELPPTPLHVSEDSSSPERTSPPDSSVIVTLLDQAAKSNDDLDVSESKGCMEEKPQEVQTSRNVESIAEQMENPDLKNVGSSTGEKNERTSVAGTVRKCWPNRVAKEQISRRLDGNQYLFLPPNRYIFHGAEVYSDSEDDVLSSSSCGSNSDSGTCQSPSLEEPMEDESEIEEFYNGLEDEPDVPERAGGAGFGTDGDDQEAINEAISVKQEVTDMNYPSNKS
UniProt Q00987: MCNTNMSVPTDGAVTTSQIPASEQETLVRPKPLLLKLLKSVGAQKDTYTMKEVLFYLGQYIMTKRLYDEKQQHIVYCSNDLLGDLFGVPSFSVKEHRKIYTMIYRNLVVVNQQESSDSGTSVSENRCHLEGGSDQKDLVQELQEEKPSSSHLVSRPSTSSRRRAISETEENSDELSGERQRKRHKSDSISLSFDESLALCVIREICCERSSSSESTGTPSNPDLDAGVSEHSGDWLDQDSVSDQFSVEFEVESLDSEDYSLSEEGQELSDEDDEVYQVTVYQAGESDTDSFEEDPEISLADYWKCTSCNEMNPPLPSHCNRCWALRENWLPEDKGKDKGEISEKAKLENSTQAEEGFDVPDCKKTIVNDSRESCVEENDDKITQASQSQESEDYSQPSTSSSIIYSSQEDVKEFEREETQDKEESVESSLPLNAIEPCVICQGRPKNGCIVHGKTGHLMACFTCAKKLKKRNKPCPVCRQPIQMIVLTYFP

These are yes or no findings as the source states them, for the method shown. Binding seen in cells or lysates may run through a third protein. Some binding calls cover weakened binding; strength is not graded here.

As to “Chk2 (checkpoint kinase 2) (from UniProt O96017 1-543)”, the binding entry with p53 (tumor protein p53) is “binds”. For the substance “MDM2 (murine double minute 2 protein) (from UniProt Q00987 1-491)”, the binding result in assay [1] was “binds”.

The record behind these values is publication PMC10186606.
